These results are taken from patent publication US7947647B2, “Synthetic mimics of mammalian cell surface receptors: method and compositions” (The Penn State Research Foundation, priority 2004, dated 2011).

Assay type in all cases: cell-based, human
Data set [1] deals with Jurkat lymphocytes. The data set can be described thus: Quantification of the number of receptors on the cell surface.
For data set [2], the system named is Jurkat lymphocytes. The data set can be described thus: Subcellular localization of fluorescent receptors (epifluorescence microscopy, dithionite quenching). The note with it: 10 μM, 1 h.
Data set [3] concerns lipid raft fractions of plasma membranes of Jurkat lymphocytes. The data set can be described thus: Isolation of lipid rafts by sucrose density gradient ultracentrifugation. Conditions: receptors 1 μM with anti-DNP-AF488, Triton-X, 4° C.

Consider `CC(C)CCC[C@@H](C)[C@H]1CC[C@H]2[C@@H]3CC=C4C[C@@H](NCCCCC(=O)NCCC(=O)NCCC(=O)NCCCCC(C(=O)O)N(CC(=O)O)CC(=O)O)CC[C@]4(C)[C@H]3CC[C@]12C` (stereo partly drawn) [receptor 1, 4-Carboxy-3-(carboxymethyl)-22-[(3β)-cholest-5-en-3-ylamino]-10,14,18-trioxo-3,9,13,17-tetraazadocosan-1-oic acid], for which, in the data set on Jurkat lymphocytes [1] (10 μM receptor 1 h at 37° C.), the “average number of receptors per cell” value is on record as ~45,000,000. Besides, the “molecules of equivalent fluorescein (MEFL) per cell” value with Jurkat lymphocytes [1] (10 μM receptor, calibration curve) is given as 39,300,000.

Turning to `CC(C)CCC[C@@H](C)[C@H]1CC[C@H]2[C@@H]3CC=C4C[C@@H](NCCCNC(=O)CCNC(=O)CCNC(=O)CCCCCNc5ccc([N+](=O)[O-])c6nonc56)CC[C@]4(C)[C@H]3CC[C@]12C` [receptor 6, N-(3-{[3-({3-[(3β)-cholest-5-en-3-ylamino]propyl}amino)-3-oxopropyl]amino}-3-oxopropyl)-6-(7-nitrobenzofurazan-4-ylamino)hexanamide], the subcellular localization result in the data set on Jurkat lymphocytes [2] is “predominantly on the cell surface”.

With `CC(C)CCC[C@@H](C)[C@H]1CC[C@H]2[C@@H]3CC=C4C[C@@H](NCCCNC(=O)CCNC(=O)CCCCCNc5ccc([N+](=O)[O-])c6nonc56)CC[C@]4(C)[C@H]3CC[C@]12C` [receptor 7, N-[3-({3-[(3β)-cholest-5-en-3-ylamino]propyl}amino)-3-oxopropyl]-6-(7-nitrobenzofurazan-4-ylamino)hexanamide], in the data set with Jurkat lymphocytes [2], the subcellular localization result is “lower cell surface localization”.

With `CC(C)CCCC(C)[C@H]1CCC2C3CC=C4CC(NCCCNC(=O)CCCCCNc5ccc([N+](=O)[O-])c6nonc56)CC[C@]4(C)C3CC[C@@]21C` (stereo partly shown) [receptor 8], the subcellular localization result in the data set on Jurkat lymphocytes [2] is reported as “primarily intracellular”.

With `CC(C)CCC[C@@H](C)[C@H]1CC[C@H]2[C@@H]3CC=C4C[C@@H](NC(=O)CCNC(=O)CCCCCNc5ccc([N+](=O)[O-])c6nonc56)CC[C@]4(C)[C@H]3CC[C@]12C` [receptor 9, N-[3-[(3β)-cholest-5-en-3-ylamino]-3-oxopropyl]-6-(7-nitrobenzofurazan-4-ylamino)hexanamide], the subcellular localization result with Jurkat lymphocytes [2] was “essentially completely associated with internal membranes”.

With “transferrin: green fluorescent transferrin protein, negative control for lipid rafts [reference compound]”, the “association with low-density lipid raft membrane fraction (#5)” value in data set [3] is on record as “not observed”.
